Data taken from patent US20080175847A1 (Genentech, published 2008).
No constants are given. Whether binding was seen depends on the method and setting. Some entries that bind do so weakly or less than the wild type.

Protein sequences, listed by entry. Tags and fused reporters are not part of them. Lines headed by an entry give the natural chain unless they say otherwise; changes in a name come on top. Residues count along the entry.
UniProt P78504: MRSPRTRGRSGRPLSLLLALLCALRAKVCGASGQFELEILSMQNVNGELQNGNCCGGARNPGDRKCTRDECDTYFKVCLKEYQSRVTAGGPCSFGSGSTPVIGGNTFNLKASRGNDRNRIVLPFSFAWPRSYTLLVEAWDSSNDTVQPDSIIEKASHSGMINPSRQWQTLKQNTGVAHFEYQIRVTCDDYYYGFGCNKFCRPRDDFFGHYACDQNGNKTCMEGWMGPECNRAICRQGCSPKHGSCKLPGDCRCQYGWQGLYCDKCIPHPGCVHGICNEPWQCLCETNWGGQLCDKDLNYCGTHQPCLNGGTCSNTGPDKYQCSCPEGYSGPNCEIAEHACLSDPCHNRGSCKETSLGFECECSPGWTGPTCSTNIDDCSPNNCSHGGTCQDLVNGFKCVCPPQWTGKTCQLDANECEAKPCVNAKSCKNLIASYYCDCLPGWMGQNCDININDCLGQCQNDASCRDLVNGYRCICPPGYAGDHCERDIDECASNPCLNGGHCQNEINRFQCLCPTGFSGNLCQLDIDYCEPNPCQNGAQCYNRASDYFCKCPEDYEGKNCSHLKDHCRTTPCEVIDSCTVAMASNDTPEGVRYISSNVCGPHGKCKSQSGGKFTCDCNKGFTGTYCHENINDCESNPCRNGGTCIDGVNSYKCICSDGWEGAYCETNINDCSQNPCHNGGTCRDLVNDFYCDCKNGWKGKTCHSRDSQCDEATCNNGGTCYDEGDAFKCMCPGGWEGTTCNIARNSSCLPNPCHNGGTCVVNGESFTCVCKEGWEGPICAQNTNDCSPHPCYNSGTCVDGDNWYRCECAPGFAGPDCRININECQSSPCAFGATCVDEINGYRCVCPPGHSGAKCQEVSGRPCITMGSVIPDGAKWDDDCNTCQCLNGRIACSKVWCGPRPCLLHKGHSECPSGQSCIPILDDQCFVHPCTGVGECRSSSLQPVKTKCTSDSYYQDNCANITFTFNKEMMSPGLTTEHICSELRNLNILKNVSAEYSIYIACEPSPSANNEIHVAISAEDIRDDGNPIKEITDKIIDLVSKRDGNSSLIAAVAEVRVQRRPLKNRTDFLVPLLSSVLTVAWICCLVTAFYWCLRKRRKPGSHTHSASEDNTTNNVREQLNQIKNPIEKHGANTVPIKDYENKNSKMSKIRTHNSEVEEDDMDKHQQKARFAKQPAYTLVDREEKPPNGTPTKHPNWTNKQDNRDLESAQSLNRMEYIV
UniProt O00548: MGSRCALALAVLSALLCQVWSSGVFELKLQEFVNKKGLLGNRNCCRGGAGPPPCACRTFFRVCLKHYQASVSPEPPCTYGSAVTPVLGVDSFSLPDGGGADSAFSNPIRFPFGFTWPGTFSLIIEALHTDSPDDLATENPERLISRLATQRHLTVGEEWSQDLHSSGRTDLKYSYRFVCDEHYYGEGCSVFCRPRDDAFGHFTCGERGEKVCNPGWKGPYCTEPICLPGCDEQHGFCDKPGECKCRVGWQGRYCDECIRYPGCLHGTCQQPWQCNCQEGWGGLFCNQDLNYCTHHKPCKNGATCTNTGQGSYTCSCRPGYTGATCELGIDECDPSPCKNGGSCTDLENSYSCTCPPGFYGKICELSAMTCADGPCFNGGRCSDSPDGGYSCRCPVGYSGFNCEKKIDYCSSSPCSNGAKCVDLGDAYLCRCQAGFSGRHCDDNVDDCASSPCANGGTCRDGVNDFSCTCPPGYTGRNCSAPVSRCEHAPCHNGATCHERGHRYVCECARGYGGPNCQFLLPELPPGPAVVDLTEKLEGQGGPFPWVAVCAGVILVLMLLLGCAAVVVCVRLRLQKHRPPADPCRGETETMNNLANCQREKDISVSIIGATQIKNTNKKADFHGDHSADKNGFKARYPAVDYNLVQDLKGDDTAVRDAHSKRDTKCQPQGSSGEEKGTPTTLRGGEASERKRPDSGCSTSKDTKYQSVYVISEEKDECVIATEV
UniProt Q07008, residues 19-488: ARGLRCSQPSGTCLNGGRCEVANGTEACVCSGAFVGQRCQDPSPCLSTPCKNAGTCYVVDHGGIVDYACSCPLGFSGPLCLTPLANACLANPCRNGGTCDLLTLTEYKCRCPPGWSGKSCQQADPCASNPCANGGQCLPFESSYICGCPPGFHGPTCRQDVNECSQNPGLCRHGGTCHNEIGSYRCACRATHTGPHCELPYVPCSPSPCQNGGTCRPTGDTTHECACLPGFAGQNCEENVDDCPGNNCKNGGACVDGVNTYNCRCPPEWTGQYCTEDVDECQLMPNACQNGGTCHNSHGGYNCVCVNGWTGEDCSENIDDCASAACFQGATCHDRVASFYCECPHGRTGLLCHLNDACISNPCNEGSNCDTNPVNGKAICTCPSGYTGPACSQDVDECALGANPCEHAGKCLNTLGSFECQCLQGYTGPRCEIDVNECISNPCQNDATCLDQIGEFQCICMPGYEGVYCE
UniProt Q9QW30, residues 26-492: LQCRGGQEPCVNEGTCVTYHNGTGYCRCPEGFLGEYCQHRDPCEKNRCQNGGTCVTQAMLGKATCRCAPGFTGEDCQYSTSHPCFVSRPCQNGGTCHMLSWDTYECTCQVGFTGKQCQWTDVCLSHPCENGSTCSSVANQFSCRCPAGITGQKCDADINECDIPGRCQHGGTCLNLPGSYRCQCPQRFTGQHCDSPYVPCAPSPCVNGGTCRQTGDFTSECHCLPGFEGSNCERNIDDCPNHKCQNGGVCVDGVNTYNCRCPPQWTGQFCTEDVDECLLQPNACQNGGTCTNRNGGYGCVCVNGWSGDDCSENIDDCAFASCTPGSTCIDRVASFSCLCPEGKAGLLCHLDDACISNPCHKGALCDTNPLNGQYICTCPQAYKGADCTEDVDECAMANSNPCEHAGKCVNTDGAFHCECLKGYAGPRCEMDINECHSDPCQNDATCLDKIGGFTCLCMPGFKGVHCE

Assays:
[1] = target: Jag1 on transiently transfected 293 cells (Homo sapiens (Human)) (UniProt P78504); test: FACS of transiently transfected 293 cells, rrNotch1-Fc at 2 µg/ml, goat anti-human IgG-PE [middle panel]
[2] = target: Jag1 on transiently transfected 293 cells (Homo sapiens (Human)) (UniProt P78504); test: FACS on transiently transfected 293 cells
[3] = target: Jag1 on transiently transfected 293 cells (Homo sapiens (Human)) (UniProt P78504); test: FACS on transiently transfected 293 cells, 2 µg/ml
[4] = target: DLL1 on transiently transfected 293 cells (Homo sapiens (Human)) (UniProt O00548); test: FACS of transiently transfected 293 cells, rrNotch2-Fc at 2 µg/ml, goat anti-human IgG-PE [bottom panel]
[5] = target: DLL1 on transiently transfected 293 cells (Homo sapiens (Human)) (UniProt O00548); test: FACS on transiently transfected 293 cells
[6] = target: DLL1 on transiently transfected 293 cells (Homo sapiens (Human)) (UniProt O00548); test: FACS on transiently transfected 293 cells, 2 µg/ml

| binding [1] | binding [2] | binding [3] | binding [4] | binding [5] | binding [6] | Substance |
| --- | --- | --- | --- | --- | --- | --- |
| binds | binds | binds | – | – | – | recombinant rat Notch1-Fc (from UniProt Q07008 19-488) (Fc fusion) |
| – | – | – | binds | binds | binds | recombinant rat Notch2-Fc (from UniProt Q9QW30 26-492) (Fc fusion) |
